Measured values reported in PMC11302967.
No constants are given. Whether binding was seen depends on the method and setting. In cells and extracts the contact can be indirect. Some entries that bind do so weakly or less than the wild type. Where a sequence is shown, tags or fusion partners need not be part of it.

Amino acid sequences for entries named in this document (tags omitted).
UniProt O14493: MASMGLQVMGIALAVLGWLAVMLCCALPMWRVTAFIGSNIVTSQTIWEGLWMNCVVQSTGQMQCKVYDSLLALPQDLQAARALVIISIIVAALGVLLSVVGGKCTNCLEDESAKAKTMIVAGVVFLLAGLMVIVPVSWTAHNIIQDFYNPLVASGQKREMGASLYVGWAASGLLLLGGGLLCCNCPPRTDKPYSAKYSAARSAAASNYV
UniProt P04406: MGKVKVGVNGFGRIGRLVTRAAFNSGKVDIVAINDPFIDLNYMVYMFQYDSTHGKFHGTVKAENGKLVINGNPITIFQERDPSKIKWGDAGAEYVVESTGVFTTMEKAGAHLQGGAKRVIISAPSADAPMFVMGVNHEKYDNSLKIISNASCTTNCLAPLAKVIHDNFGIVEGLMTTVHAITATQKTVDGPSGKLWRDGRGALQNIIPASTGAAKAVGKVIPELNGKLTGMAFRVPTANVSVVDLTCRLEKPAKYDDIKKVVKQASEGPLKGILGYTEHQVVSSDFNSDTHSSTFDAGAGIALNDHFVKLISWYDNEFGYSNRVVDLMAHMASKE

Target: T1, eGFP-tagged ATP8B1 (UniProt O43520)
T1 sequence: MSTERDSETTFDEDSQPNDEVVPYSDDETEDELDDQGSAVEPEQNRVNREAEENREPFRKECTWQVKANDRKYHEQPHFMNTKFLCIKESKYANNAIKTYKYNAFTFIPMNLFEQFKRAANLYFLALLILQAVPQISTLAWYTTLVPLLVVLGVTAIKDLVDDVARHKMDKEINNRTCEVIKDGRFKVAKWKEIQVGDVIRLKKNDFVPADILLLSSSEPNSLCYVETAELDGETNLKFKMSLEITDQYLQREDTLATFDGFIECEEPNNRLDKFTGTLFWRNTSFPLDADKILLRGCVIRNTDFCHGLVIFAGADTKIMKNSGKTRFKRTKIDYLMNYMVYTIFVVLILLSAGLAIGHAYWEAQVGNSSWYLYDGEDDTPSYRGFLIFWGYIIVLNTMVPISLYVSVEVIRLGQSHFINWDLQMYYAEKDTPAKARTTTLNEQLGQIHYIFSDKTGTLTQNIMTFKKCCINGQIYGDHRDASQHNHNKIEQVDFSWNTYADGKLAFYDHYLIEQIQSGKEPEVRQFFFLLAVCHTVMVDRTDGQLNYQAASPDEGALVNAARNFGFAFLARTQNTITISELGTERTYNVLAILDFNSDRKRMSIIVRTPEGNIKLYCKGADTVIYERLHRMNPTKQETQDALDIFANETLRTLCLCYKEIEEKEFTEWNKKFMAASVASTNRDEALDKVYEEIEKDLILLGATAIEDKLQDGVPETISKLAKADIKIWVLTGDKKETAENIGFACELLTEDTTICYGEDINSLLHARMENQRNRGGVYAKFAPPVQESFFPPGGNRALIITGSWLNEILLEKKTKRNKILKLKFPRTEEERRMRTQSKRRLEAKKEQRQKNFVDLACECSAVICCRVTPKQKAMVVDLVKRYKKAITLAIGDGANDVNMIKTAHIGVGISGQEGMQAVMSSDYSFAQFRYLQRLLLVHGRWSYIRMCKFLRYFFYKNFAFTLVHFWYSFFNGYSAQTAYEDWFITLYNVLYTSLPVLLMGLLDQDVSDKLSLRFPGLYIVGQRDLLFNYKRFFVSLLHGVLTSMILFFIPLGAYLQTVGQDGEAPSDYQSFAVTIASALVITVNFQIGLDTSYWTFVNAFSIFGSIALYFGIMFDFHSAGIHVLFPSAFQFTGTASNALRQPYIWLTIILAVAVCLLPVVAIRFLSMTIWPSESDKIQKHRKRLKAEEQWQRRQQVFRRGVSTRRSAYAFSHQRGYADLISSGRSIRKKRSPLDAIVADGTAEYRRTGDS
Experiment: co-IP; anti-GFP immunoprecipitation of ATP8B1-eGFP from Caco2-BBE cells over-expressing ATP8B1-eGFP; immunoblot of the eluate

| Substance | binding |
| --- | --- |
| Claudin-4 (from UniProt O14493 1-209) | binds |
| GAPDH (from UniProt P04406 1-335) | no binding |
